B1: Rmt2 (endogenous) (enzyme, UniProt Q03305 1-412)
chain: MSELHALLTFPERPISQSYYVPKLQHFLKSGIPATYTLEQVAAFEHEEKNRNGDKEFRESTDDNKTSNTTPLHVLARSLPLDIKDEELQVVMDMMNILFEYGAGWNFIDYEDKTVGDLFLERNQSRESPLYRRLVEAGVSAELLLRKLNGGDVEFLDTDELIGIEPEESVQTAVDGQKEESVGSDDDATAANQQVYLKTELEYKDDALITKENKDGVMMDWETKIMELASETLFPDPEATNSATILNIGFGMGIIDTFIQARKPYRHYICEAHPDVLAKMKMDGWYEKDNVVILEGRWQDTLNNLLDKGEVFFDGIYYDTFSEHYQDILDLYDVVVGLIKPEGVFSFFNGLGADRSLCYDVYKEIVEIDVATYGMKCDYTRYSLDEQLPDWNDVKRSYFNCNYYYHPRITFA
B2: Hmt1 (also termed Rmt1) (endogenous) (enzyme, UniProt P38074 1-348)
chain: MSKTAVKDSATEKTKLSESEQHYFNSYDHYGIHEEMLQDTVRTLSYRNAIIQNKDLFKDKIVLDVGCGTGILSMFAAKHGAKHVIGVDMSSIIEMAKELVELNGFSDKITLLRGKLEDVHLPFPKVDIIISEWMGYFLLYESMMDTVLYARDHYLVEGGLIFPDKCSIHLAGLEDSQYKDEKLNYWQDVYGFDYSPFVPLVLHEPIVDTVERNNVNTTSDKLIEFDLNTVKISDLAFKSNFKLTAKRQDMINGIVTWFDIVFPAPKGKRPVEFSTGPHAPYTHWKQTIFYFPDDLDAETGDTIEGELVCSPNEKNNRDLNIKISYKFESNGIDGNSRSRKNEGSYLMH
B3: Snf11 (endogenous) (protein, UniProt P38956 1-169)
chain: MSSEIAYSNTNTNTENENRNTGAGVDVNTNANANANATANATANATANATAELNLPTVDEQRQYKVQLLLHINSILLARVIQMNNSLQNNLQNNINNSNNNNIIRIQQLISQFLKRVHANLQCISQINQGVPSAKPLILTPPQLANQQQPPQDILSKLYLLLARVFEIW

Sequences of proteins named here, by UniProt entry; tags and fusion partners are left off.
UniProt P22082: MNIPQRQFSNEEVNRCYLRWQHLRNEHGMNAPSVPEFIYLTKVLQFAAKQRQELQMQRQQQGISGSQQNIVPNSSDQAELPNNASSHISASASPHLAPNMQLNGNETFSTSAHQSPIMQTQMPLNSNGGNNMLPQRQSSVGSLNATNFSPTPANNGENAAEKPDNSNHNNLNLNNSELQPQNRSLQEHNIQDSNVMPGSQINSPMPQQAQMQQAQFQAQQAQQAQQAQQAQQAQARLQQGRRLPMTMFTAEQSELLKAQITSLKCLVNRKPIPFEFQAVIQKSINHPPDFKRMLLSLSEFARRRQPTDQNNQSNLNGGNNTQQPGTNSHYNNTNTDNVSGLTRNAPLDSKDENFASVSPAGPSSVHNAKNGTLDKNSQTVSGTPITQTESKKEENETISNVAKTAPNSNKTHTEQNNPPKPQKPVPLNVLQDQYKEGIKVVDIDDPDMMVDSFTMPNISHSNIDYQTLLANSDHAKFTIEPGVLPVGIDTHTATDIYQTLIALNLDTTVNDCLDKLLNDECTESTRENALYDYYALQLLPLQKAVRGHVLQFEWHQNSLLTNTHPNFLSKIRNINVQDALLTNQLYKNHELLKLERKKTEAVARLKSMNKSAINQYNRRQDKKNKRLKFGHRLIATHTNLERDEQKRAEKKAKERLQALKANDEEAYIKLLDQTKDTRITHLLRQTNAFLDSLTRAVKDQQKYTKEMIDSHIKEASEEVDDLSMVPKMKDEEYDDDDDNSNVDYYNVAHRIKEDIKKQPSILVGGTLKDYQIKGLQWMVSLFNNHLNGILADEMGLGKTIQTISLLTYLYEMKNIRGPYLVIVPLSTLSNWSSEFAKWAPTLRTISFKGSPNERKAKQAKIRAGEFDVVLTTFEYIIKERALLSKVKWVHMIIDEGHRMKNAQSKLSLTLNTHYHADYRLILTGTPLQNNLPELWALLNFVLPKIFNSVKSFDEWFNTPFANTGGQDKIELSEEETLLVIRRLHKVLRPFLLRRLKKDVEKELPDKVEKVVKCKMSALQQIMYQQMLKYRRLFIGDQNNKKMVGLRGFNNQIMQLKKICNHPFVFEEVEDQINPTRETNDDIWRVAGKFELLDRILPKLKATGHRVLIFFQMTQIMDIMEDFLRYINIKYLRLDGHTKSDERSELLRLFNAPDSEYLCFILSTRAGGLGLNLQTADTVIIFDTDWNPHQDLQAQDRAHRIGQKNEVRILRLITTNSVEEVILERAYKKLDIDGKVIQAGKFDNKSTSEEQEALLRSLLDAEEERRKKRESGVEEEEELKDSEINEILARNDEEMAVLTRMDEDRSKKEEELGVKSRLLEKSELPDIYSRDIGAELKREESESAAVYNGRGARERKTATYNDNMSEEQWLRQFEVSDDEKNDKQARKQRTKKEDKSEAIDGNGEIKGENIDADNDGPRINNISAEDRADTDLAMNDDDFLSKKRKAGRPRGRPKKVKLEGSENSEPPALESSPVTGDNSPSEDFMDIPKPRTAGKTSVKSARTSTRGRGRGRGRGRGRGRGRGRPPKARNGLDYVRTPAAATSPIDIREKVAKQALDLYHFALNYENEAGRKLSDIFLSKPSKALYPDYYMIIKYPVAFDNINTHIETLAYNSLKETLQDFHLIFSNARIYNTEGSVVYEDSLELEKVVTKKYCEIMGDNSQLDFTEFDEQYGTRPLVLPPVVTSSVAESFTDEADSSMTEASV
UniProt P43554: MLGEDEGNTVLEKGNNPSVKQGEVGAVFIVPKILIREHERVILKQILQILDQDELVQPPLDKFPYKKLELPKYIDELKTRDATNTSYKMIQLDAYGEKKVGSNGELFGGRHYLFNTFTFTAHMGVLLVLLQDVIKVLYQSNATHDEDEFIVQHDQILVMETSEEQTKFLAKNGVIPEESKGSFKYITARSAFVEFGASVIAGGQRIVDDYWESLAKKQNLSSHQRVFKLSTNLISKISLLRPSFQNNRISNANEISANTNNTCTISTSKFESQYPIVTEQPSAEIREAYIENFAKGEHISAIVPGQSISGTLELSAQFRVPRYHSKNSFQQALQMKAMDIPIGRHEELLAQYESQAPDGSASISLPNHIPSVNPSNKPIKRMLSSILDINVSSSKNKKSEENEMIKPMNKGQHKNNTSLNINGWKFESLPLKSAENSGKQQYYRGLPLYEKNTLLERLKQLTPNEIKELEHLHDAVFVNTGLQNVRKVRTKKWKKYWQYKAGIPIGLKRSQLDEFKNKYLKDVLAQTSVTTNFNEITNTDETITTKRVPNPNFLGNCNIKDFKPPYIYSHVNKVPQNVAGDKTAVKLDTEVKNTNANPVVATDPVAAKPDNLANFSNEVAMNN
UniProt P53628: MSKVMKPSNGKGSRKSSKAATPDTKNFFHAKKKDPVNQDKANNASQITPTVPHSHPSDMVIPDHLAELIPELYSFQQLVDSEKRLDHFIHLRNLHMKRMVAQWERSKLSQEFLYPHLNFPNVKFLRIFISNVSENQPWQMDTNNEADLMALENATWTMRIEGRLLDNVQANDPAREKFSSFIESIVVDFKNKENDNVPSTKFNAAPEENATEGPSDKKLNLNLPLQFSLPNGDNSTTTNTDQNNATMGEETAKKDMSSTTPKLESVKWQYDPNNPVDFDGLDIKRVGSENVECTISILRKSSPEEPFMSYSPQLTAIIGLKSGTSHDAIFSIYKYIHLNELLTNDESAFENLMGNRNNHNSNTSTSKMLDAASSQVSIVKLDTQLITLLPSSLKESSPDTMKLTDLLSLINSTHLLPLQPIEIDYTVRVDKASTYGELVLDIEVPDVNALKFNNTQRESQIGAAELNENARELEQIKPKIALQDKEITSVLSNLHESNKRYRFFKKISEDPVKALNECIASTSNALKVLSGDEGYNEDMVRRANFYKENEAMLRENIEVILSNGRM
UniProt P53330: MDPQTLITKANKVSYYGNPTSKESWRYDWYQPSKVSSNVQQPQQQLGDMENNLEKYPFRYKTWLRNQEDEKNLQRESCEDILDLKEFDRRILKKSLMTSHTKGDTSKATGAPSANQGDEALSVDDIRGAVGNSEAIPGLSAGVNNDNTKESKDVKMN
UniProt P18888: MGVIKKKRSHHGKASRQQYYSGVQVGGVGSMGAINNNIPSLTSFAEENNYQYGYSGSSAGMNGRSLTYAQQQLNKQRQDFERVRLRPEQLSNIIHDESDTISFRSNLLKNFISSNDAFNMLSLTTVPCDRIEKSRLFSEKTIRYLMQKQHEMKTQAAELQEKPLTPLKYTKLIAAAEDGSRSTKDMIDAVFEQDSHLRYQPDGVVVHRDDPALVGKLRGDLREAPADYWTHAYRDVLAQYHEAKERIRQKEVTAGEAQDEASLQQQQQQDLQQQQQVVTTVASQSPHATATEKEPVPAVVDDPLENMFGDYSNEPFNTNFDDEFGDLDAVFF
UniProt P35189: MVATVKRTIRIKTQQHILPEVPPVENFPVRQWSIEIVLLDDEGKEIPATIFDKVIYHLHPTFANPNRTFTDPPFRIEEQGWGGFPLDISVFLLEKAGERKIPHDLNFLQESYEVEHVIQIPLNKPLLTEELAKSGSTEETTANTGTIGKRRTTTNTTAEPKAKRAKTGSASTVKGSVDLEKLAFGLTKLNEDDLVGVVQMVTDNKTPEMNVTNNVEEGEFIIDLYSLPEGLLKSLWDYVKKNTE
UniProt Q05123: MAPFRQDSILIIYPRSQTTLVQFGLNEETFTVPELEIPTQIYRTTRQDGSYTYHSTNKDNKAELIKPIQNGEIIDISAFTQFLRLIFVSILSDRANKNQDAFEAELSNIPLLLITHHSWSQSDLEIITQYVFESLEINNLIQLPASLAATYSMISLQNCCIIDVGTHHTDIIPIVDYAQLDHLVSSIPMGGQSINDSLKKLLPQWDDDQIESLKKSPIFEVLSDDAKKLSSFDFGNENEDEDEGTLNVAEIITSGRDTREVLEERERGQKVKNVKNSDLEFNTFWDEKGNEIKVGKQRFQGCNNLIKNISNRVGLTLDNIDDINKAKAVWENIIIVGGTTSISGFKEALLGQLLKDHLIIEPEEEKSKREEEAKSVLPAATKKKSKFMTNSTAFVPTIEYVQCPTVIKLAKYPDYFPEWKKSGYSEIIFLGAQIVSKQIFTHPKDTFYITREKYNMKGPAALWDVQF
UniProt P09547: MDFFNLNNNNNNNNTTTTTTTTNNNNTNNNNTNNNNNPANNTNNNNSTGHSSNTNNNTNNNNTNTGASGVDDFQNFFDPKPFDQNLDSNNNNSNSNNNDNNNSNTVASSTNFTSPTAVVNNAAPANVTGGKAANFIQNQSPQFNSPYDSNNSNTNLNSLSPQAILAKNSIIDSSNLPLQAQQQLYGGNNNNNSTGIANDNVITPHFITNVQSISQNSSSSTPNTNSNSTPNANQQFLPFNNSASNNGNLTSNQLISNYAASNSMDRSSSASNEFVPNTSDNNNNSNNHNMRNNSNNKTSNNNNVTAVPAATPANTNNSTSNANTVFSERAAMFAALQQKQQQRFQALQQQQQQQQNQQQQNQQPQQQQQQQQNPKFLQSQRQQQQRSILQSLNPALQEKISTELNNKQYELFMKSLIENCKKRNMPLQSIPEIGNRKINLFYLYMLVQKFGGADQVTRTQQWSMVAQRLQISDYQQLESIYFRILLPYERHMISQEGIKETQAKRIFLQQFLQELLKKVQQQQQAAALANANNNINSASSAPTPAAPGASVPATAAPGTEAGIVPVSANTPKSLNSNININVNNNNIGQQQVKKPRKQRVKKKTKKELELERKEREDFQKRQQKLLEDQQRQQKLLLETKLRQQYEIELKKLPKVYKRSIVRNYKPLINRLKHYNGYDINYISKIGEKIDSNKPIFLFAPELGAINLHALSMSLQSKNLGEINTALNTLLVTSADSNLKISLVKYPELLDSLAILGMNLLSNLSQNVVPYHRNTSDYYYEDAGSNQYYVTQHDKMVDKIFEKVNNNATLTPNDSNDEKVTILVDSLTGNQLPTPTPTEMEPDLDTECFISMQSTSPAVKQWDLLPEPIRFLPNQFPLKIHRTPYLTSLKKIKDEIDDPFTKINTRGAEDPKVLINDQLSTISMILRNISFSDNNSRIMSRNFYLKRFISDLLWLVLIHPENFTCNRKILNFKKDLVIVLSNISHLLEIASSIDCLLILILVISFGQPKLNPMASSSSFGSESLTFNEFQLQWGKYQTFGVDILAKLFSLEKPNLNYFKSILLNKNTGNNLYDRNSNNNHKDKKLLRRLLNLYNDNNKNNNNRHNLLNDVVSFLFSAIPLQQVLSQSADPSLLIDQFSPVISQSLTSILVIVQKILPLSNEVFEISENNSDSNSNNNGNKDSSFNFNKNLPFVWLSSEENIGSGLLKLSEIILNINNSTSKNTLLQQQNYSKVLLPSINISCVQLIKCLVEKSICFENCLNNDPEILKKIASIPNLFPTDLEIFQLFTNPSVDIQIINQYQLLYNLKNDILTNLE
UniProt P32591: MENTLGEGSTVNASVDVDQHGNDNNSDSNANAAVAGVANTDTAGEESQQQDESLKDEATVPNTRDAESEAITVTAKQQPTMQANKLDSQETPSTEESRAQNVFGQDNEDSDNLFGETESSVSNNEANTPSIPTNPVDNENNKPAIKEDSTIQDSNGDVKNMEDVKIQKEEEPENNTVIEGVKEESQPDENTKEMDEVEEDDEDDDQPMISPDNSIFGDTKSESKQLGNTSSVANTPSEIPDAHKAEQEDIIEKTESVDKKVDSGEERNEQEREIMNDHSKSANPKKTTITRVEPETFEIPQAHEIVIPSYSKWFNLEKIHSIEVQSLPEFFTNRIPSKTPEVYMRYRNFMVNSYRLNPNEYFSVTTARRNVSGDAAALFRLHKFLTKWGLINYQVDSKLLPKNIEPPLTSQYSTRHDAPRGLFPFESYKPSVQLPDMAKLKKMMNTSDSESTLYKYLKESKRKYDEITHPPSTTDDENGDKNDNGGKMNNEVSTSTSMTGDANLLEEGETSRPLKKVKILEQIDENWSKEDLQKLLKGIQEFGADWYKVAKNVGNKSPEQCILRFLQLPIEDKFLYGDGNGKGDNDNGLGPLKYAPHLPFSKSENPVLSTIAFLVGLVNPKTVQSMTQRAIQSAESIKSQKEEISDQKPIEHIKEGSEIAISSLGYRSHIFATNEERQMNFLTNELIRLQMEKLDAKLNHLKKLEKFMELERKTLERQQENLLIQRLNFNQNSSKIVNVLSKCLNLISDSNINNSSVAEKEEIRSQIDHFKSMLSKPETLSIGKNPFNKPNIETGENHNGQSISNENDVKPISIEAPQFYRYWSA

Results are given in words; binding and its absence hold for the method and conditions named. In cells and extracts the contact can be indirect. A yes stands for co-enrichment or nearness to the bait. Other partners may have been found. No binding means not detected with the bait.

The experiment concerns the target Snf2-GFP (S. cerevisiae) (UniProt P22082). The experiment is described as follows: affinity purification with mass spectrometry; Snf2-GFP purified from WT and set1∆ cells on GFP nanobody-coated Dynabeads in TMG 50; compared with a no-tag control.
As for “Swp82 (endogenous) (from UniProt P43554 1-623)”, the binding entry is recorded as “binds”. Take “Arp7 (endogenous) (from UniProt Q12406 1-477)”: the binding result is given as “binds”. Take “Snf12 (endogenous) (from UniProt P53628 1-566)”: the binding result is “binds”.

On to “Rtt102 (endogenous) (from UniProt P53330 1-157)”, for which the binding result is recorded as “binds”. As to “Snf6 (endogenous) (from UniProt P18888 1-332)”, the binding entry is given as “binds”.

As to “Taf14 (endogenous) (from UniProt P35189 1-244)”, the binding result was “binds”. As to “Arp9 (endogenous) (from UniProt Q05123 1-467)”, the binding result is on record as “binds”. In the case of “Swi1 (endogenous) (from UniProt P09547 1-1314)” it was “binds”; in that of “Snf5 (endogenous) (from UniProt P18480 1-905)”, “binds”. In the case of “Swi3 (endogenous) (from UniProt P32591 1-825)”, the binding result is listed as “binds”. As to B1, the binding result is listed as “binds”. For B2 the value was “no binding”; for B3, “binds”.
